In the supplement of paper PMC12823440, “Inhibitors supercharge kinase turnover through native proteolytic circuits” (Nature, 2025):
Counter-ions that a name gives are not always drawn. The list shows a part of the results. Hit calls seldom repeat between salt and free forms of one compound.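 Kinases, fused to nanoluciferase, were expressed in K562 cells; luminescence was measured every 4 h from 2 to 18 h as percent of control (DMSO = 100%, positive control = 0%). A time point is decreased if signal falls significantly (2 sigma). Hits were called by the authors by a rule that is not shown; the count of time points alone does not decide it.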

Amino acid sequences for entries named in this document (tags omitted). A change or cut given only in a name is not applied to a line headed by its entry.
UniProt Q13555: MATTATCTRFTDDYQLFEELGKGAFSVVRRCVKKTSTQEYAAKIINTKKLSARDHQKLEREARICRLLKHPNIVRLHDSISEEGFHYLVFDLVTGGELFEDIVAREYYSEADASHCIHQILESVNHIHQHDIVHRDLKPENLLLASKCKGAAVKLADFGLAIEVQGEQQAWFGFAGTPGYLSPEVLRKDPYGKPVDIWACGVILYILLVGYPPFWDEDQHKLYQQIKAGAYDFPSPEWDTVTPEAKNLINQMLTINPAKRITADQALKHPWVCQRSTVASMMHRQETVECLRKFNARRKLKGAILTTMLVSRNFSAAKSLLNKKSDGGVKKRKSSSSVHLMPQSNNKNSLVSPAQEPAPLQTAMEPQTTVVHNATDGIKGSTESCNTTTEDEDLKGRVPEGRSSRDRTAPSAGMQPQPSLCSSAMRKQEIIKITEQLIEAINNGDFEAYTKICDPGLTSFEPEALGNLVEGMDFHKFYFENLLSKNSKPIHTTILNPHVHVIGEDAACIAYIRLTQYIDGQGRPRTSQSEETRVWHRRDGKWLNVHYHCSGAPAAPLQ
UniProt Q15131: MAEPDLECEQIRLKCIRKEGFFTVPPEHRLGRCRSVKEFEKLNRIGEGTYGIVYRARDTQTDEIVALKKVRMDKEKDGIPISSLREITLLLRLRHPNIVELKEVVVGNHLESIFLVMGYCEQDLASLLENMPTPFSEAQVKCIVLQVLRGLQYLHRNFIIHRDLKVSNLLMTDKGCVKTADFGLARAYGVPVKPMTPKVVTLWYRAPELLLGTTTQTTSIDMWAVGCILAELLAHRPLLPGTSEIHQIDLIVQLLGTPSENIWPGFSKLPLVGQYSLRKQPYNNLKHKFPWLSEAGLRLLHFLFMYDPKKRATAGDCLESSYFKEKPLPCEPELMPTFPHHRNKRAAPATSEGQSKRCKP

biological target: CAMK2G (UniProt Q13555); test: kinase-Nluc reporter destabilization hit call (1 = scored as downregulated) (binary); higher = compound decreases kinase abundance; conditions: K562; 2-18 h

kinase-Nluc reporter destabilization hit call, inactive:
COc1ccc(NC(=O)N2CCN(c3nc(N)nc4c3cnn4C)[C@@H](C)C2)c(C)c1 (10 µM) 0, O=C(Nc1ccc(-c2ccnc(Nc3ccc(N4CCOCC4)cc3)n2)cc1)C1CCCN1 (centres undefined) (10 µM) 0, COc1nccc(-c2c(-c3ccc(F)cc3)ncn2C2CCC(O)CC2)n1 (centres undefined) (10 µM) 0, NC(=O)c1ccc2nc(-c3ccc(Oc4ccc(Cl)cc4)cc3)[nH]c2c1 (10 µM) 0, Cc1cc(C)c(/C=C2\C(=O)Nc3ccccc32)[nH]1 [Semaxinib] (10 µM) 0, COc1ccc(COc2ccc(Cc3cnc(N)nc3N)cc2OC)cc1 (10 µM) 0, CN1CCN(c2ccc(Nc3cc(-c4cccc(-n5ccc6cc(C7CC7)cc(F)c6c5=O)c4CO)cn(C)c3=O)nc2)CC1 (2.5 µM) 0, C=CC(=O)N1CCC[C@@H](n2nc(-c3ccc(Oc4ccccc4)cc3)c(C(N)=O)c2N)C1 [Btk inhibitor 2] (10 µM) 0, Cc1c(NC(=O)c2cc3c(s2)CCCC3)cccc1-c1cn(C)c(=O)c(Nc2ccc([C@@H]3C(=O)N(C)CCN3C)cc2)n1 (10 µM) 0, CCOc1ccn(-c2ccc(F)cc2)c(=O)c1C(=O)Nc1ccc(Oc2ccnc(N)c2Cl)c(F)c1 (10 µM) 0, CCn1c(=O)c2cc(C(N)=O)c(N)nc2n(C2CC2)c1=O (10 µM) 0, COc1cc(C(=O)NC2CCN(C)CC2)ccc1Nc1ncc2c(n1)N(C1CCCC1)CC(F)(F)C(=O)N2C (10 µM) 0, CCN1CCN(c2ccc(Nc3cc(N(C)C(=O)Nc4c(Cl)c(OC)cc(OC)c4Cl)ncn3)cc2)CC1 [Infigratinib] (10 µM) 0, CN1CCN(S(=O)(=O)c2ccc(-c3cnc(N)c(C(=O)Nc4cccnc4)n3)cc2)CC1 (10 µM) 0, Cc1cccc([C@@H](CO)NC(=O)[C@@H](C)N2Cc3ccc(-c4nc(NC5CCOCC5)ncc4Cl)cc3C2=O)c1 [ERK1/2 inhibitor 1] (10 µM) 0, COc1cc(CCc2cc(-c3nc4ccc(N5CCN(C)CC5)cc4[nH]3)n[nH]2)cc(OC)c1 (10 µM) 0, Cc1cc(CS(=O)(=O)c2ccccc2)cc(OCc2ccc(CN3CCC[C@@H]3CO)cc2)c1 [PF-543 (Citrate)] (10 µM) 0, Cc1cc(F)c(C(=O)Nc2cccc(-c3nncn3C(C)C)n2)cc1-n1cnc(C2CC2)c1 [Selonsertib] (10 µM) 0, COCCOc1cc2nccc(Nc3n[nH]c(C)c3C)c2cc1S(=O)(=O)C(C)(C)C [RIP2 kinase inhibitor 2] (2.5 µM) 0

biological target: CDK10 (UniProt Q15131); test: as above; conditions: K562; 2-18 h

kinase-Nluc reporter destabilization hit call, inactive:
N#Cc1ccc2[nH]c(O)c(-c3ccc(CN4CCOCC4)cn3)c2c1 (10 µM) 0, O=C1NCCc2[nH]c(-c3ccnc(-c4cnc5ccccc5c4)c3)cc21 (10 µM) 0, Oc1cc(O)cc(/C=C/c2ccc(O)c(O)c2)c1 [Piceatannol] (10 µM) 0, O=C(NOC[C@H](O)CO)c1ccc(F)c(F)c1Nc1ccc(I)cc1F (2.5 µM) 0, Cn1c(=O)n(-c2ccc(C(C)(C)C#N)cc2)c2c3cc(-c4cnc5ccccc5c4)ccc3ncc21 [Dactolisib (Tosylate)] (10 µM) 0, CCCCNc1ncc(-c2ccc(CN3CCOCC3)cn2)c(NC2CCC(O)CC2)n1 (centres undefined) (10 µM) 0, O=C(Nc1cc(C(F)(F)F)ccc1N1CCN(Cc2ccccn2)CC1)c1ccc(-c2ccncc2)o1 (10 µM) 0, CC[C@H](CO)Nc1nc(NCc2ccccc2)c2ncn(C(C)C)c2n1 [Seliciclib] (10 µM) 0, COC(=O)c1ccc2c(C(=Nc3ccc(N(C)C(=O)CN4CCN(C)CC4)cc3)c3ccccc3)c(O)[nH]c2c1 [Nintedanib] (2.5 µM) 0, COc1cc(F)cc([C@@H](CO)NC(=O)[C@@H](C)N2Cc3ccc(-c4nc(NC5CCOCC5)ncc4Cl)cc3C2=O)c1 [ERK1/2 inhibitor 2] (10 µM) 0, CC(C)c1ccc2oc3nc(N)c(C(=O)O)cc3c(=O)c2c1 [Amlexanox] (10 µM) 0, CN(C)C[C@@H]1CCn2cc(c3ccccc32)C2=C(C(=O)NC2=O)c2cn(c3ccccc23)CCO1 [Ruboxistaurin (hydrochloride)] (10 µM) 0, CCc1nc(-c2cccc(C)c2)c(-c2ccnc(NC(=O)c3ccccc3)c2)s1 (10 µM) 0, CCOc1cc2ncc(-c3cc(N)nc(F)c3)n2cc1S(=O)(=O)C(C)(C)C (10 µM) 0, CC(C)(/C=C(\C#N)C(=O)N1CCC[C@@H](n2nc(-c3ccc(Oc4ccccc4)cc3F)c3c(N)ncnc32)C1)N1CCN(C2COC2)CC1 (2.5 µM) 0, CCCn1cnc2c(NCc3ccccc3)nc(NC(CC)CO)nc21 (centres undefined) [Ca2+ channel agonist 1] (2.5 µM) 0, Brc1c(Br)c(Br)c2n[nH]nc2c1Br (10 µM) 0, Nc1nc(OCC2CCCCC2)c2[nH]cnc2n1 (10 µM) 0, COc1ccc(Oc2cc(NCCC(F)(F)F)c3ncc(-c4ccc(C(=O)NC5CC5)c(C)c4)n3n2)c(F)c1F (2.5 µM) 0, COc1cc(C(=O)NC2CCN(C)CC2)c(F)cc1Nc1ncc2c(n1)N(C1CCCC1)CC(F)(F)C(=O)N2C [TAK-960 (dihydrochloride)] (2.5 µM) 0, COc1ccc(NC(=O)N2CCN(c3nc(N)nc4c3cnn4C)[C@@H](C)C2)c(C)c1 (10 µM) 0, O=C(Nc1ccc(-c2ccnc(Nc3ccc(N4CCOCC4)cc3)n2)cc1)C1CCCN1 (centres undefined) (10 µM) 0, COc1nccc(-c2c(-c3ccc(F)cc3)ncn2C2CCC(O)CC2)n1 (centres undefined) (10 µM) 0, NC(=O)c1ccc2nc(-c3ccc(Oc4ccc(Cl)cc4)cc3)[nH]c2c1 (10 µM) 0, Cc1cc(C)c(/C=C2\C(=O)Nc3ccccc32)[nH]1 [Semaxinib] (10 µM) 0, COc1ccc(COc2ccc(Cc3cnc(N)nc3N)cc2OC)cc1 (10 µM) 0, CN1CCN(c2ccc(Nc3cc(-c4cccc(-n5ccc6cc(C7CC7)cc(F)c6c5=O)c4CO)cn(C)c3=O)nc2)CC1 (2.5 µM) 0, C=CC(=O)N1CCC[C@@H](n2nc(-c3ccc(Oc4ccccc4)cc3)c(C(N)=O)c2N)C1 [Btk inhibitor 2] (10 µM) 0, Cc1c(NC(=O)c2cc3c(s2)CCCC3)cccc1-c1cn(C)c(=O)c(Nc2ccc([C@@H]3C(=O)N(C)CCN3C)cc2)n1 (10 µM) 0, CCOc1ccn(-c2ccc(F)cc2)c(=O)c1C(=O)Nc1ccc(Oc2ccnc(N)c2Cl)c(F)c1 (10 µM) 0, CCn1c(=O)c2cc(C(N)=O)c(N)nc2n(C2CC2)c1=O (10 µM) 0, COc1cc(C(=O)NC2CCN(C)CC2)ccc1Nc1ncc2c(n1)N(C1CCCC1)CC(F)(F)C(=O)N2C (10 µM) 0, CCN1CCN(c2ccc(Nc3cc(N(C)C(=O)Nc4c(Cl)c(OC)cc(OC)c4Cl)ncn3)cc2)CC1 [Infigratinib] (10 µM) 0, CN1CCN(S(=O)(=O)c2ccc(-c3cnc(N)c(C(=O)Nc4cccnc4)n3)cc2)CC1 (10 µM) 0, Cc1cccc([C@@H](CO)NC(=O)[C@@H](C)N2Cc3ccc(-c4nc(NC5CCOCC5)ncc4Cl)cc3C2=O)c1 [ERK1/2 inhibitor 1] (10 µM) 0, COc1cc(CCc2cc(-c3nc4ccc(N5CCN(C)CC5)cc4[nH]3)n[nH]2)cc(OC)c1 (10 µM) 0, Cc1cc(CS(=O)(=O)c2ccccc2)cc(OCc2ccc(CN3CCC[C@@H]3CO)cc2)c1 [PF-543 (Citrate)] (10 µM) 0, Cc1[nH]c(/C=C2\C(=O)Nc3ccc(S(=O)(=O)Cc4c(Cl)cccc4Cl)cc32)c(C)c1C(=O)N1CCC[C@@H]1CN1CCCC1 (2.5 µM) 0, Cc1cc(F)c(C(=O)Nc2cccc(-c3nncn3C(C)C)n2)cc1-n1cnc(C2CC2)c1 [Selonsertib] (10 µM) 0, COCCOc1cc2nccc(Nc3n[nH]c(C)c3C)c2cc1S(=O)(=O)C(C)(C)C [RIP2 kinase inhibitor 2] (2.5 µM) 0
